Results as given in paper PMC2702278.
Results are given in words; binding and its absence hold for the method and conditions named. In cells and extracts the contact can be indirect. Here binding means that the protein was enriched with, or labelled near, the bait; the list need not be complete.

Sequences of proteins named here, by UniProt entry; tags and fusion partners are left off. A change or cut given only in a name is not applied to a line headed by its entry.
UniProt Q96B97: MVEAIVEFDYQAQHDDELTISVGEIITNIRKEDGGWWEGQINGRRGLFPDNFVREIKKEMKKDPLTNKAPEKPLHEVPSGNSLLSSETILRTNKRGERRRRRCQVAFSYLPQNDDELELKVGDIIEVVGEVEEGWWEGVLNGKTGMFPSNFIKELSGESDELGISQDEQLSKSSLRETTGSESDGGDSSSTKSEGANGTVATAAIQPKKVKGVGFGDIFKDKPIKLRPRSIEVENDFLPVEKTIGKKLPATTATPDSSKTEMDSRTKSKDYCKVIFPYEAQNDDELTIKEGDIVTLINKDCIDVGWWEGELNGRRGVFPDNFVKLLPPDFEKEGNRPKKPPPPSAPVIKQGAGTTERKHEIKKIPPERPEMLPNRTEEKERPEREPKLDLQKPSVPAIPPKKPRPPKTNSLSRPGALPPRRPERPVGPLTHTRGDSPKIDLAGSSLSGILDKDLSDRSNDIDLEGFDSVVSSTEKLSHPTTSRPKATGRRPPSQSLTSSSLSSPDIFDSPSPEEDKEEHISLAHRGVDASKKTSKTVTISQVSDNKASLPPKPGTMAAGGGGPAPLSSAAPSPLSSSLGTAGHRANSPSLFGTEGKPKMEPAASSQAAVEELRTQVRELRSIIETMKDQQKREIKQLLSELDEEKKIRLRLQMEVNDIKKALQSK

Legend:
Assay in all cases: affinity purification with mass spectrometry; GST-fusion SH3 domain (about 10 μg on 40 μl Glutathione Sepharose 4B) incubated 4 h at 4°C with HeLa lysate pre-cleared on GST beads; 20 mM Tris pH 7.5, 150 mM NaCl, 5 mM EDTA, 5% glycerol, 0.5% Triton X-100 (washes 0.1%); SDS-PAGE, in-gel trypsin digestion, LC-MS/MS; hits also found with GST alone removed; only the target purified
[1] = biological target: GST-fusion SH3B domain of Ruk/CIN85 (UniProt Q96B97)
[2] = biological target: GST-fusion SH3A domain of Ruk/CIN85 (UniProt Q96B97)
[3] = biological target: GST-fusion SH3C domain of Ruk/CIN85 (UniProt Q96B97)

Measured: binding

B1: ARAP1 (protein, UniProt Q96P48 1-1450)
chain: MAEAGDAALSVAEWLRALHLEQYTGLFEQHGLVWATECQGLSDTRLMDMGMLLPGHRRRILAGLLRAHTSPAPAPRPTPRPVPMKRHIFRSPPVPATPPEPLPTTTEDEGLPAAPPIPPRRSCLPPTCFTTPSTAAPDPVLPPLPAKRHLAELSVPPVPPRTGPPRLLVSLPTKEEESLLPSLSSPPQPQSEEPLSTLPQGPPQPPSPPPCPPEIPPKPVRLFPEFDDSDYDEVPEEGPGAPARVMTKKEEPPPSRVPRAVRVASLLSEGEELSGDDQGDEEEDDHAYEGVPNGGWHTSSLSLSLPSTIAAPHPMDGPPGGSTPVTPVIKAGWLDKNPPQGSYIYQKRWVRLDTDHLRYFDSNKDAYSKRFISVACISHVAAIGDQKFEVITNNRTFAFRAESDVERKEWMQALQQAMAEQRARARLSSAYLLGVPGSEQPDRAGSLELRGFKNKLYVAVVGDKVQLYKNLEEYHLGIGITFIDMSVGNVKEVDRRSFDLTTPYRIFSFSADSELEKEQWLEAMQGAIAEALSTSEVAERIWAAAPNRFCADCGAPQPDWASINLCVVICKRCAGEHRGLGAGVSKVRSLKMDRKVWTETLIELFLQLGNGAGNRFWAANVPPSEALQPSSSPSTRRCHLEAKYREGKYRRYHPLFGNQEELDKALCAAVTTTDLAETQALLGCGAGINCFSGDPEAPTPLALAEQAGQTLQMEFLRNNRTTEVPRLDSMKPLEKHYSVVLPTVSHSGFLYKTASAGKLLQDRRAREEFSRRWCVLGDGVLSYFENERAVTPNGEIRASEIVCLAVPPPDTHGFEHTFEVYTEGERLYLFGLESAEQAHEWVKCIAKAFVPPLAEDLLARDFERLGRLPYKAGLSLQRAQEGWFSLSGSELRAVFPEGPCEEPLQLRKLQELSIQGDSENQVLVLVERRRTLYIQGERRLDFMGWLGAIQKAAASMGDTLSEQQLGDSDIPVIVYRCVDYITQCGLTSEGIYRKCGQTSKTQRLLESLRQDARSVHLKEGEQHVDDVSSALKRFLRDLPDGLFTRAQRLTWLEASEIEDEEEKVSRYRELLVRLPPVNRATVKALISHLYCVQCFSDTNQMNVHNLAIVFGPTLFQTDGQDYKAGRVVEDLINHYVVVFSVDEEELRKQREEITAIVKMRVAGTASGTQHAGDFICTVYLEEKKAETEQHIKVPASMTAEELTLEILDRRNVGIREKDYWTCFEVNEREEAERPLHFAEKVLPILHGLGTDSHLVVKKHQAMEAMLLYLASRVGDTKHGMMKFREDRSLLGLGLPSGGFHDRYFILNSSCLRLYKEVRSQRPWSGAPETSHRPEKEWPIKSLKVYLGVKKKLRPPTCWGFTVVHETEKHEKQQWYLCCDTQMELREWFATFLFVQHDGLVWPSEPSRVSRAVPEVRLGSVSLIPLRGSENEMRRSVAAFTADPLSLLRNV
binds: all assays above

B2: Septin 11 (protein, UniProt Q9NVA2 1-429)
chain: MAVAVGRPSNEELRNLSLSGHVGFDSLPDQLVNKSTSQGFCFNILCVGETGIGKSTLMDTLFNTKFESDPATHNEPGVRLKARSYELQESNVRLKLTIVDTVGFGDQINKDDSYKPIVEYIDAQFEAYLQEELKIKRSLFNYHDTRIHACLYFIAPTGHSLKSLDLVTMKKLDSKVNIIPIIAKADTIAKNELHKFKSKIMSELVSNGVQIYQFPTDEETVAEINATMSVHLPFAVVGSTEEVKIGNKMAKARQYPWGVVQVENENHCDFVKLREMLIRVNMEDLREQTHTRHYELYRRCKLEEMGFKDTDPDSKPFSLQETYEAKRNEFLGELQKKEEEMRQMFVMRVKEKEAELKEAEKELHEKFDLLKRTHQEEKKKVEDKKKELEEEVNNFQKKKAAAQLLQSQAQQSGAQQTKKDKDKKNASFT
binds: all assays above

B3: MKLP-1 (protein, UniProt Q02241 1-960)
chain: MKSARAKTPRKPTVKKGSQTNLKDPVGVYCRVRPLGFPDQECCIEVINNTTVQLHTPEGYRLNRNGDYKETQYSFKQVFGTHTTQKELFDVVANPLVNDLIHGKNGLLFTYGVTGSGKTHTMTGSPGEGGLLPRCLDMIFNSIGSFQAKRYVFKSNDRNSMDIQCEVDALLERQKREAMPNPKTSSSKRQVDPEFADMITVQEFCKAEEVDEDSVYGVFVSYIEIYNNYIYDLLEEVPFDPIKPKPPQSKLLREDKNHNMYVAGCTEVEVKSTEEAFEVFWRGQKKRRIANTHLNRESSRSHSVFNIKLVQAPLDADGDNVLQEKEQITISQLSLVDLAGSERTNRTRAEGNRLREAGNINQSLMTLRTCMDVLRENQMYGTNKMVPYRDSKLTHLFKNYFDGEGKVRMIVCVNPKAEDYEENLQVMRFAEVTQEVEVARPVDKAICGLTPGRRYRNQPRGPVGNEPLVTDVVLQSFPPLPSCEILDINDEQTLPRLIEALEKRHNLRQMMIDEFNKQSNAFKALLQEFDNAVLSKENHMQGKLNEKEKMISGQKLEIERLEKKNKTLEYKIEILEKTTTIYEEDKRNLQQELETQNQKLQRQFSDKRRLEARLQGMVTETTMKWEKECERRVAAKQLEMQNKLWVKDEKLKQLKAIVTEPKTEKPERPSRERDREKVTQRSVSPSPVPLSSNYIAQISNGQQLMSQPQLHRRSNSCSSISVASCISEWEQKIPTYNTPLKVTSIARRRQQEPGQSKTCIVSDRRRGMYWTEGREVVPTFRNEIEIEEDHCGRLLFQPDQNAPPIRLRHRRSRSAGDRWVDHKPASNMQTETVMQPHVPHAITVSVANEKALAKCEKYMLTHQELASDGEIETKLIKGDIYKTRGGGQSVQFTDIETLKQESPNGSRKRRSSTVAPAQPDGAESEWTDVETRCSVAVEMRAGSQLGPGYQHHAQPKRKKP
binds: all assays above

B4: Septin 6 (protein, UniProt Q14141 1-434)
chain: MAATDIARQVGEGCRTVPLAGHVGFDSLPDQLVNKSVSQGFCFNILCVGETGLGKSTLMDTLFNTKFEGEPATHTQPGVQLQSNTYDLQESNVRLKLTIVSTVGFGDQINKEDSYKPIVEFIDAQFEAYLQEELKIRRVLHTYHDSRIHVCLYFIAPTGHSLKSLDLVTMKKLDSKVNIIPIIAKADAISKSELTKFKIKITSELVSNGVQIYQFPTDDESVAEINGTMNAHLPFAVIGSTEELKIGNKMMRARQYPWGTVQVENEAHCDFVKLREMLIRVNMEDLREQTHTRHYELYRRCKLEEMGFKDTDPDSKPFSLQETYEAKRNEFLGELQKKEEEMRQMFVQRVKEKEAELKEAEKELHEKFDRLKKLHQDEKKKLEDKKKSLDDEVNAFKQRKTAAELLQSQGSQAGGSQTLKRDKEKKNNPWLCTE
binds: all assays above

B5: Septin 9 (protein, UniProt Q9UHD8 1-586)
chain: MKKSYSGGTRTSSGRLRRLGDSSGPALKRSFEVEEVETPNSTPPRRVQTPLLRATVASSTQKFQDLGVKNSEPSARHVDSLSQRSPKASLRRVELSGPKAAEPVSRRTELSIDISSKQVENAGAIGPSRFGLKRAEVLGHKTPEPAPRRTEITIVKPQESAHRRMEPPASKVPEVPTAPATDAAPKRVEIQMPKPAEAPTAPSPAQTLENSEPAPVSQLQSRLEPKPQPPVAEATPRSQEATEAAPSCVGDMADTPRDAGLKQAPASRNEKAPVDFGYVGIDSILEQMRRKAMKQGFEFNIMVVGQSGLGKSTLINTLFKSKISRKSVQPTSEERIPKTIEIKSITHDIEEKGVRMKLTVIDTPGFGDHINNENCWQPIMKFINDQYEKYLQEEVNINRKKRIPDTRVHCCLYFIPATGHSLRPLDIEFMKRLSKVVNIVPVIAKADTLTLEERVHFKQRITADLLSNGIDVYPQKEFDEDSEDRLVNEKFREMIPFAVVGSDHEYQVNGKRILGRKTKWGTIEVENTTHCEFAYLRDLLIRTHMQNIKDITSSIHFEAYRVKRLNEGSSAMANGMEEKEPEAPEM
binds: all assays above
